Laboratory results as given in the supplement of paper PMC10849652.
This is one part of the list.

By UniProt entry, the sequences of proteins in these tests, tags left out. Where a name states a change or a piece, a line headed by the entry shows the natural chain unless it says otherwise.
UniProt Q9BVQ7: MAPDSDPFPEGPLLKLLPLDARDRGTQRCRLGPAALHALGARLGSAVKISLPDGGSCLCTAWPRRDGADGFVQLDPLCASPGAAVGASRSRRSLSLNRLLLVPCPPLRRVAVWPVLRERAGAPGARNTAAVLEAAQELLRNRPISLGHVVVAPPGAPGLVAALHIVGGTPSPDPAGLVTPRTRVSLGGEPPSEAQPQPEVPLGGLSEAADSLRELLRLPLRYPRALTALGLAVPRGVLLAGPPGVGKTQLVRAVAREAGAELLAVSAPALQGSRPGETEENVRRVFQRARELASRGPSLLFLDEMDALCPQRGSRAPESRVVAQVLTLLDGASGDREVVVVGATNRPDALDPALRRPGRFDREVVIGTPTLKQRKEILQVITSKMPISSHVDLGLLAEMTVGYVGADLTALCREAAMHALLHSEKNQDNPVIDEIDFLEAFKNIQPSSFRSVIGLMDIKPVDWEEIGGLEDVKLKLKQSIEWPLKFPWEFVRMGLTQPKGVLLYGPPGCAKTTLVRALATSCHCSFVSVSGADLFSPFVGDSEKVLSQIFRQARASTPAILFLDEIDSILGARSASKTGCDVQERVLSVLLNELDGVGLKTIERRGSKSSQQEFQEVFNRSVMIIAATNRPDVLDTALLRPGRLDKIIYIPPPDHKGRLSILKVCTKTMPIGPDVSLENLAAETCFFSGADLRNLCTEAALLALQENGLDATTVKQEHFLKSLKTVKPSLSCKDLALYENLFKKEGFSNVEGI
UniProt P61011: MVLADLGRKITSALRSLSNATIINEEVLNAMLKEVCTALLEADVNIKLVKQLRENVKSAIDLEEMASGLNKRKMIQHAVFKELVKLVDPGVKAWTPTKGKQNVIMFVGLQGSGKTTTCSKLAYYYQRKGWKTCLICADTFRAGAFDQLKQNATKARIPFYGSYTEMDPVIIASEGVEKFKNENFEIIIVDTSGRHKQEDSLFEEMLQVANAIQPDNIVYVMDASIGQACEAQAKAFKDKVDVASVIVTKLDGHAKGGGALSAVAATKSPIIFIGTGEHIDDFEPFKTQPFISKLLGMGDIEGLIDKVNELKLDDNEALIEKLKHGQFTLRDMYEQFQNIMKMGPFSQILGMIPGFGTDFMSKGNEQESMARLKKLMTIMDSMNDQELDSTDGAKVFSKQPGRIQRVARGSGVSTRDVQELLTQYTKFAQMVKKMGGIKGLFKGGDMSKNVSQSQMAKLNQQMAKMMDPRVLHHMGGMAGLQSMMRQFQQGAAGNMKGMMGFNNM
UniProt Q92783: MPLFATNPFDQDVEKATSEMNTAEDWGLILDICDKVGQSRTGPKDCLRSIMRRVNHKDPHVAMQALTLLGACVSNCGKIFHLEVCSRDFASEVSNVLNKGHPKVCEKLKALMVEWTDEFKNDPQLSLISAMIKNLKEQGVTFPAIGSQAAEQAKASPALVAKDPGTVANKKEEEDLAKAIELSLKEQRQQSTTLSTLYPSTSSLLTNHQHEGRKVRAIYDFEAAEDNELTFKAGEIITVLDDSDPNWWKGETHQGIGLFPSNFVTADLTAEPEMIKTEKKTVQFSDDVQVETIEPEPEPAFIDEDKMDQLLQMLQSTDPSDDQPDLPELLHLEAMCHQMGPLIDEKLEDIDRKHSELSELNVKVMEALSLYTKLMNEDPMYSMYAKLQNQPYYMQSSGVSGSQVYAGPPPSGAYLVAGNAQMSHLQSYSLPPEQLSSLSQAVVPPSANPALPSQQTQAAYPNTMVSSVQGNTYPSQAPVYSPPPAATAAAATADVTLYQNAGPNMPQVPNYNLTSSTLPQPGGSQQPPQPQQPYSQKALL
UniProt Q8WXA9: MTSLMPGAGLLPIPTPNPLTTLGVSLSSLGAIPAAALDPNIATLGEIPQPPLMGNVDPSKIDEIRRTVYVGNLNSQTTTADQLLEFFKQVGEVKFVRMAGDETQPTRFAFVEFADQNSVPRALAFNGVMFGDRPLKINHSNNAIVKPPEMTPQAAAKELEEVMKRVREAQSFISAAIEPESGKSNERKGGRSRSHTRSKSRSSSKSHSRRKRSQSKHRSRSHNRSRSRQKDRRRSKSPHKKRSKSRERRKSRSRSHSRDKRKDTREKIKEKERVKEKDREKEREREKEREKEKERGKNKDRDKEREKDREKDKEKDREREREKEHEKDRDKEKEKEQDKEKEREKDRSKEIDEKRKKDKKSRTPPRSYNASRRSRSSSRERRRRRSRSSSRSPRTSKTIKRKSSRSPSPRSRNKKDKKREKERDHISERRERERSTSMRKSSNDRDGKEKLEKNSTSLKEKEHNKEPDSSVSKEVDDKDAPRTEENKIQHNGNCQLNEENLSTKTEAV
UniProt Q9H254, whole entry, looked up: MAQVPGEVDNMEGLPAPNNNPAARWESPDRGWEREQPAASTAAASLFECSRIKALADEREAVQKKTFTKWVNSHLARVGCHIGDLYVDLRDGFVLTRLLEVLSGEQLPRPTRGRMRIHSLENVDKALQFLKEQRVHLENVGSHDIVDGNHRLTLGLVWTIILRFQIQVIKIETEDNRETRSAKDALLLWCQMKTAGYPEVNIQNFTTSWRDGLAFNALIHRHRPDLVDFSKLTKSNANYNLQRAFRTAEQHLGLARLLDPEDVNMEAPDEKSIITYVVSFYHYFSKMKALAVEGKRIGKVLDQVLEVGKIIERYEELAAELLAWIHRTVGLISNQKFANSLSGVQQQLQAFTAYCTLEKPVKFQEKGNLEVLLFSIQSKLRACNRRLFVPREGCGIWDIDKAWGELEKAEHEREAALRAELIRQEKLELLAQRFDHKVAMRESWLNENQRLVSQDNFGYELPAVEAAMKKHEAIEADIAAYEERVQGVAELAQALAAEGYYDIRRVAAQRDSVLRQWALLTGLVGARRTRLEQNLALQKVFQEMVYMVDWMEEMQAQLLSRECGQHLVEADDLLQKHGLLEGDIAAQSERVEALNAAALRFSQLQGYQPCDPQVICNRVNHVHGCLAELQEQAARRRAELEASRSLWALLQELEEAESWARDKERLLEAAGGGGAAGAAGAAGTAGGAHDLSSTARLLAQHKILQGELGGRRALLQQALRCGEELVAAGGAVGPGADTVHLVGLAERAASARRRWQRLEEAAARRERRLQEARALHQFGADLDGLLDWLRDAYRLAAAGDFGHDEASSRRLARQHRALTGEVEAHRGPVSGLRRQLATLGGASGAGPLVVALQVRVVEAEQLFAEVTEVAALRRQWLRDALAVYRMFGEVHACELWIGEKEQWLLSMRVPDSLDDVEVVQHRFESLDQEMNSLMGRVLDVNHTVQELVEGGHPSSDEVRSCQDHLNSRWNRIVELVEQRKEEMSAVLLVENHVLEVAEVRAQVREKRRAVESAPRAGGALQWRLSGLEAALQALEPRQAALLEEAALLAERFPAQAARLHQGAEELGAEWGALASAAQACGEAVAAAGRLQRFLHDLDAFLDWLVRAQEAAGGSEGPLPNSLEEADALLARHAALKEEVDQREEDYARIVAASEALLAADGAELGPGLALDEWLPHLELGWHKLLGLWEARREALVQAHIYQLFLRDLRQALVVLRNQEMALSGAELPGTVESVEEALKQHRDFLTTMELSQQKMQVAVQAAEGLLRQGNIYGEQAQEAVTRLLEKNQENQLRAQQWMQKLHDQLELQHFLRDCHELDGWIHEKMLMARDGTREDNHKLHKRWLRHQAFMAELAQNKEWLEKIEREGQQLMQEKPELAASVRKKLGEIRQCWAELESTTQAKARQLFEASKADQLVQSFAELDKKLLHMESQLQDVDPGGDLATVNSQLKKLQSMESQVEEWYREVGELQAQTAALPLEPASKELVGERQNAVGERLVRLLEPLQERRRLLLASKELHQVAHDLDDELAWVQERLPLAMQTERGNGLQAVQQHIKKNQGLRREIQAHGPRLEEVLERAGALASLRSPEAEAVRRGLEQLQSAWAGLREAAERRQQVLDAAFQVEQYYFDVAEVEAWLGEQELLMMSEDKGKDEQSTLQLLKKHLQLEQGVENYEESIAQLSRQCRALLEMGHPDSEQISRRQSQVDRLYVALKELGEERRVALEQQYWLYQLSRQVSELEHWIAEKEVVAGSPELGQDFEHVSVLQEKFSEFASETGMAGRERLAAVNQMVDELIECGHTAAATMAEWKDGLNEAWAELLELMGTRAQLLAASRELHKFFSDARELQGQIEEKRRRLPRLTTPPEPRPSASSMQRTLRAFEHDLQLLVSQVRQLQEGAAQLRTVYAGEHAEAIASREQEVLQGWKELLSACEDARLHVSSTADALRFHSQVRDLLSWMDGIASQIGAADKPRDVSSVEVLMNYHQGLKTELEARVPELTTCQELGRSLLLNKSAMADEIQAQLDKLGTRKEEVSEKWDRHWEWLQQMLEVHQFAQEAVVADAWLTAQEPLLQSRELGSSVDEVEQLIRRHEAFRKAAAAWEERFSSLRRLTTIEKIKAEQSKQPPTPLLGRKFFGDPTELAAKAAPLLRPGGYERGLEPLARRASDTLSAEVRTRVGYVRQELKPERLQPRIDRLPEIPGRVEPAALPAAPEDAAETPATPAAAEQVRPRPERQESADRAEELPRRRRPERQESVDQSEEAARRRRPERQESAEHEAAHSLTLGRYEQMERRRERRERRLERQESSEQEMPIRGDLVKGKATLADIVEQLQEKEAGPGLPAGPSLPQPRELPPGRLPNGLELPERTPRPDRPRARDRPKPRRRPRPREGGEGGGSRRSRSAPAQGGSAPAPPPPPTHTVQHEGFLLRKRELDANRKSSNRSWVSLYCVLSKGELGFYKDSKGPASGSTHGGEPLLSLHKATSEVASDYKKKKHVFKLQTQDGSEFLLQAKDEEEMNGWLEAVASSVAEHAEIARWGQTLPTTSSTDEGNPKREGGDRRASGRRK
UniProt Q01130: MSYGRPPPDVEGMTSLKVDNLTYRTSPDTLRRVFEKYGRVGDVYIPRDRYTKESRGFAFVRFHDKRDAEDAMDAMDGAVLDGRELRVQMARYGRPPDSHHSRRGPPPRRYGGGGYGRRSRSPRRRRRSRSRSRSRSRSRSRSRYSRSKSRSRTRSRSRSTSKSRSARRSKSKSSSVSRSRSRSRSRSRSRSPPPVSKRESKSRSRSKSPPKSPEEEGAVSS
UniProt Q8NBT2: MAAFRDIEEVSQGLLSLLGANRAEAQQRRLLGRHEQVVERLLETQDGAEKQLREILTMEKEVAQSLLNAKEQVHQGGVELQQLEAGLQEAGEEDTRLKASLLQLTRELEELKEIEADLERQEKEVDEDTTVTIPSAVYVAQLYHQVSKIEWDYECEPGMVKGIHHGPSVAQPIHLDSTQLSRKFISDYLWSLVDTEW
UniProt Q9HD15: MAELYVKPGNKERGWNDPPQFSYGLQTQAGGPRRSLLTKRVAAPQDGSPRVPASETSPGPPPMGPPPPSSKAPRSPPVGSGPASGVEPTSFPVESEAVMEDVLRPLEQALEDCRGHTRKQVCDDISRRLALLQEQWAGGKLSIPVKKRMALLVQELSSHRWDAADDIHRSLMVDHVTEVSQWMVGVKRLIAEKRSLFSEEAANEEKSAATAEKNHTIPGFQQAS
UniProt P49458: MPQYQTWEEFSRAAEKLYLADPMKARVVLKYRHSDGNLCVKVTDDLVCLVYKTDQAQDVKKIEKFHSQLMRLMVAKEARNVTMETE
UniProt O43805: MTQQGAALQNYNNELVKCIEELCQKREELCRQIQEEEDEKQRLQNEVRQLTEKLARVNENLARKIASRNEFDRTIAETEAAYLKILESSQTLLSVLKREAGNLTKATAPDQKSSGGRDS
UniProt Q8TCT7: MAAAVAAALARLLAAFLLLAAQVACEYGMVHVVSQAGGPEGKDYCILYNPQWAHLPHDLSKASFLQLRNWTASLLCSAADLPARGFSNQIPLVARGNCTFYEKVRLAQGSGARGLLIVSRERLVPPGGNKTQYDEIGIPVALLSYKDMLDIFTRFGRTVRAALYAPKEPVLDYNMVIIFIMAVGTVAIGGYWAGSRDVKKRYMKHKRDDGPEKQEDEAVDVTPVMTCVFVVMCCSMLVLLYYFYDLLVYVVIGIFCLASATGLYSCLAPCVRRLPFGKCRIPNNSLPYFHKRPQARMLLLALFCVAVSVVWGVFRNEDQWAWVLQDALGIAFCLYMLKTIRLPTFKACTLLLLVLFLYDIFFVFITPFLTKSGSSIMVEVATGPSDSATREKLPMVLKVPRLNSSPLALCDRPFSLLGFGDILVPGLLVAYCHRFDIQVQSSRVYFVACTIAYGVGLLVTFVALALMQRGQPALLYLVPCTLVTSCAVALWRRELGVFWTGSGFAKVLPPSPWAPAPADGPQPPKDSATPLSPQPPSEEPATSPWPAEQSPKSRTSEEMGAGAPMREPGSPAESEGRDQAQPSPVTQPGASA
UniProt P43307: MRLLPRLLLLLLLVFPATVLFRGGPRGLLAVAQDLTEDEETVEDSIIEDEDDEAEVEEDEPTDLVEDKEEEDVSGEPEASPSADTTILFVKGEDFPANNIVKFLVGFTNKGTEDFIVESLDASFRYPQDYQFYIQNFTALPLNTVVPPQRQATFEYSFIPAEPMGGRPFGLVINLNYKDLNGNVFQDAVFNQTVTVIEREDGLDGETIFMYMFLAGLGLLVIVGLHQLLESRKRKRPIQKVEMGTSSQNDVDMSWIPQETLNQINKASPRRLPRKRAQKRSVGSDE

Assays:
Test in all cases: log2 fold change, soluble protein after heating vs DMSO (PISA); higher = thermal stabilisation; K562 cells, 10 uM, 30 min; active = over 0.2 and 3.5 SD of the protein, either way, in both replicates (recomputed)
[1] = compound: COC1=CC=C(C=C1)CN2C=CC3=C2C=C(C=C3)C(=O)NO
In short: (§1)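 K562 cells (2×10^6 cells/mL) were treated with 10 μM compound for 30 min, and aliquots were heated for 3 min over 48°C-58°C. Pooled aliquots were extracted in PBS with 0.5% NP-40 at 4°C, and the supernatant after 21,000xg for 90 min was measured by TMTpro 16plex LC-MS/MS with channel sums equalised. Reported thermal stability, relative to control samples and from duplicates, is a log2 fold change.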

[2] = compound: CON(C)C(=O)N1N=C(c2cc(F)ccc2F)S[C@@]1(CCCN)c1ccccc1 [filanesib]
In short: as §1

[3] = compound: CO[C@H]1C[C@@H]2CC[C@@H](C)[C@@](O)(O2)C(=O)C(=O)N2CCCC[C@H]2C(=O)O[C@H]([C@H](C)C[C@@H]2CC[C@H](n3cnnn3)[C@H](OC)C2)CC(=O)[C@H](C)/C=C(\C)[C@@H](O)[C@@H](OC)C(=O)[C@H](C)C[C@H](C)/C=C/C=C/C=C/1C [zotarolimus]
In short: as §1

[4] = compound: COc1cc(C(=O)O)ccc1NC(=O)[C@@H]1N[C@@H](CC(C)(C)C)[C@](C#N)(c2ccc(Cl)cc2F)[C@H]1c1cccc(Cl)c1F [idasanutlin]
In short: as §1

[5] = compound: COc1cc(Nc2ncc3c(n2)-c2ccc(Cl)cc2C(c2c(F)cccc2OC)=NC3)ccc1C(=O)O [alisertib]
In short: as §1

[6] = compound: COc1cc2nc(-c3cc(F)ccc3O)nc(N[C@@H]3CNC[C@H]3C(C)(C)O)c2cc1OC
In short: as §1

[7] = compound: COc1cc2ncnc(Nc3ccc(F)c(Cl)c3)c2cc1OCCCN1CCOCC1 [gefitinib]
In short: as §1

[8] = compound: COc1cccc2cc(-c3nc([C@H]4CC[C@H](C(=O)O)CC4)n4ncnc(N)c34)[nH]c12
In short: as §1

[9] = compound: CS(=O)(=O)CCNCc1ccc(-c2ccc3ncnc(Nc4ccc(OCc5cccc(F)c5)c(Cl)c4)c3c2)o1 [lapatinib]
In short: as §1

[10] = compound: CS(=O)(=O)N1CCN(Cc2cc3nc(-c4cccc5[nH]ncc45)nc(N4CCOCC4)c3s2)CC1 [pictilisib]
In short: as §1

Target | log2 fold change [1] | log2 fold change [2] | log2 fold change [3] | log2 fold change [4] | log2 fold change [5] | log2 fold change [6] | log2 fold change [7] | log2 fold change [8] | log2 fold change [9] | log2 fold change [10]
SPATA5L1 (UniProt Q9BVQ7) | inactive: 0.016 | inactive: 0.043 | inactive: -0.034 | inactive: 0.039 | inactive: -0.086 | inactive: 0.067 | inactive: 0.014 | inactive: 0.008 | inactive: -0.027 | inactive: 0.001
SPART (UniProt Q8N0X7) | inactive: -0.073 | inactive: 0.011 | inactive: 0.02 | inactive: 0.03 | inactive: -0.009 | inactive: 0.067 | inactive: 0.054 | inactive: -0.028 | inactive: -0.015 | inactive: 0.05
SRP54 (UniProt P61011) | inactive: 0.02 | inactive: -0.013 | inactive: 0.035 | inactive: -0.031 | inactive: -0.031 | inactive: 0.035 | inactive: 0.01 | inactive: -0.039 | inactive: -0.003 | inactive: 0.004
STAM (UniProt Q92783) | inactive: 0.094 | inactive: -0.02 | inactive: -0.011 | inactive: -0.001 | inactive: -0.032 | inactive: -0.006 | inactive: -0.016 | inactive: -0.015 | inactive: -0.008 | inactive: 0
SRPRB (UniProt Q9Y5M8) | inactive: 0.133 | inactive: -0.076 | inactive: 0.018 | inactive: -0.11 | inactive: -0.021 | inactive: 0.136 | inactive: -0.001 | inactive: -0.03 | inactive: 0.048 | inactive: -0.022
SREK1 isoform 2 (UniProt Q8WXA9) | inactive: 0.26 | inactive: -0.1 | inactive: 0.053 | inactive: 0.086 | inactive: -0.096 | inactive: -0.072 | inactive: 0.066 | inactive: 0.06 | inactive: 0.108 | inactive: -0.001
SRSF1 (UniProt Q07955) | inactive: 0.073 | inactive: 0.248 | inactive: -0.046 | inactive: 0.237 | inactive: -0.107 | inactive: -0.024 | inactive: -0.008 | inactive: 0.004 | inactive: 0.067 | inactive: -0.124
SPTBN4 (UniProt Q9H254) | inactive: -0.036 | inactive: -0.068 | inactive: 0.014 | inactive: -0.237 | inactive: -0.116 | inactive: -0.202 | inactive: -0.047 | inactive: 0.158 | inactive: 0.041 | inactive: 0.175
SRSF2 (UniProt Q01130) | inactive: -0.071 | inactive: 0.118 | inactive: 0 | inactive: 0.123 | inactive: -0.076 | inactive: -0.003 | inactive: 0.038 | inactive: 0.024 | inactive: 0.039 | inactive: 0.027
SPC24 (UniProt Q8NBT2) | inactive: 0.081 | inactive: -0.034 | inactive: 0.062 | inactive: -0.026 | inactive: -0.047 | inactive: 0.005 | inactive: 0.022 | inactive: -0.023 | inactive: 0.008 | inactive: -0.008
SRA1 (UniProt Q9HD15) | inactive: -0.032 | inactive: 0.002 | inactive: 0.015 | inactive: -0.012 | inactive: 0.009 | inactive: 0.015 | inactive: -0.014 | inactive: 0.041 | inactive: -0.037 | inactive: 0.054
STARD9 (UniProt Q9P2P6) | inactive: -0.037 | inactive: -0.028 | inactive: 0.098 | inactive: -0.035 | inactive: 0.096 | inactive: 0.058 | inactive: -0.132 | inactive: -0.185 | inactive: 0.154 | inactive: 0.008
SPARC (UniProt P09486) | inactive: -0.011 | inactive: 0.126 | inactive: -0.139 | inactive: 0.01 | inactive: -0.097 | inactive: -0.09 | inactive: 0.013 | inactive: 0.104 | inactive: 0.114 | inactive: 0.024
SPECC1L (UniProt Q69YQ0) | inactive: -0.029 | inactive: 0.013 | inactive: 0.076 | inactive: 0.058 | inactive: -0.036 | inactive: 0.039 | inactive: -0.005 | inactive: 0.026 | inactive: -0.061 | inactive: 0.056
SRP9 (UniProt P49458) | inactive: -0.06 | inactive: 0.332 | inactive: -0.054 | inactive: 0.19 | inactive: -0.078 | inactive: -0.049 | inactive: -0.036 | inactive: -0.171 | inactive: 0.09 | inactive: -0.103
SSNA1 (UniProt O43805) | inactive: 0.071 | inactive: -0.035 | inactive: 0.031 | inactive: 0.04 | inactive: -0.044 | inactive: -0.02 | inactive: -0.02 | inactive: 0.023 | inactive: 0.007 | inactive: 0.125
SPTLC1 (UniProt O15269) | inactive: -0.009 | inactive: -0.09 | inactive: 0 | inactive: -0.063 | inactive: -0.102 | inactive: 0.008 | inactive: 0.061 | inactive: 0.051 | inactive: 0 | inactive: -0.009
STAU1 (UniProt O95793) | inactive: -0.075 | inactive: 0.441 | inactive: 0.029 | inactive: 0.227 | inactive: -0.114 | inactive: 0.02 | inactive: -0.055 | inactive: -0.264 | inactive: 0.166 | inactive: -0.082
SPECC1 (UniProt Q5M775) | active: -0.357 | inactive: 0.064 | inactive: 0.038 | inactive: -0.111 | inactive: -0.019 | inactive: -0.014 | inactive: 0.028 | active: 0.309 | inactive: -0.006 | inactive: 0.08
STAM2 (UniProt O75886) | inactive: -0.006 | inactive: 0.059 | inactive: -0.018 | inactive: -0.06 | inactive: 0.015 | inactive: 0.001 | inactive: 0.002 | inactive: -0.066 | inactive: -0.018 | inactive: 0.055
SQSTM1 (UniProt Q13501) | inactive: 0.047 | inactive: 0.011 | inactive: -0.167 | inactive: 0.072 | inactive: -0.016 | inactive: -0.136 | inactive: -0.022 | inactive: 0.058 | inactive: -0.012 | inactive: -0.112
SRP19 (UniProt P09132) | inactive: 0.154 | inactive: 0.009 | inactive: 0 | inactive: 0.033 | inactive: -0.01 | inactive: 0.028 | inactive: 0.083 | inactive: -0.062 | inactive: 0.028 | inactive: 0
SPTAN1 isoform 2 (UniProt Q13813) | inactive: -0.03 | inactive: 0.07 | inactive: 0 | inactive: 0.021 | inactive: 0.301 | inactive: 0.109 | inactive: 0.09 | inactive: -0.012 | inactive: 0.04 | inactive: 0.057
SRSF9 (UniProt Q13242) | inactive: -0.088 | inactive: 0.378 | inactive: -0.026 | inactive: 0.297 | inactive: -0.118 | inactive: -0.09 | inactive: -0.068 | inactive: -0.128 | inactive: 0.155 | inactive: -0.036
SRRM2 (UniProt Q9UQ35) | inactive: 0.018 | inactive: 0.097 | inactive: 0.05 | inactive: 0.166 | inactive: -0.121 | inactive: -0.293 | inactive: 0.018 | inactive: 0.028 | inactive: 0.01 | inactive: 0.117
SPPL2B (UniProt Q8TCT7) | inactive: 0.025 | inactive: -0.223 | inactive: -0.016 | inactive: -0.01 | inactive: -0.113 | inactive: -0.05 | inactive: -0.061 | inactive: 0.084 | inactive: -0.002 | active: 0.292
SSR4 (UniProt P51571) | inactive: -0.015 | inactive: -0.052 | inactive: 0.036 | inactive: -0.012 | inactive: -0.004 | inactive: 0.08 | inactive: -0.023 | inactive: 0.047 | inactive: -0.05 | inactive: 0.106
SPCS1, A0A5F9YFS9 | inactive: 0.078 | inactive: 0.024 | inactive: 0.075 | inactive: -0.17 | inactive: -0.023 | inactive: 0.059 | inactive: 0.009 | inactive: 0.039 | inactive: 0.038 | inactive: 0.046
STAT1 (UniProt P42224) | inactive: -0.155 | inactive: 0.376 | inactive: 0.076 | inactive: -0.033 | inactive: 0.03 | inactive: -0.13 | inactive: -0.014 | inactive: -0.202 | inactive: 0.172 | inactive: -0.035
SSR1 (UniProt P43307) | inactive: -0.009 | inactive: -0.034 | inactive: -0.034 | inactive: -0.005 | inactive: -0.033 | inactive: 0.021 | inactive: 0.021 | inactive: 0.078 | inactive: -0.015 | inactive: 0.003

A section from further up:
Target | log2 fold change [1] | log2 fold change [2] | log2 fold change [3] | log2 fold change [4] | log2 fold change [5] | log2 fold change [6] | log2 fold change [7] | log2 fold change [8] | log2 fold change [9] | log2 fold change [10]
SPPL2B (UniProt Q8TCT7) | inactive: 0.025 | inactive: -0.223 | inactive: -0.016 | inactive: -0.01 | inactive: -0.113 | inactive: -0.05 | inactive: -0.061 | inactive: 0.084 | inactive: -0.002 | active: 0.292
SSR4 (UniProt P51571) | inactive: -0.015 | inactive: -0.052 | inactive: 0.036 | inactive: -0.012 | inactive: -0.004 | inactive: 0.08 | inactive: -0.023 | inactive: 0.047 | inactive: -0.05 | inactive: 0.106
